According to the supplement of paper PMC10849652:
Some of the results follow.

The chains behind the UniProt entries cited, without tags or fusion partners. Where a name states a change or a piece, a line headed by the entry shows the natural chain unless it says otherwise.
UniProt Q96RL7: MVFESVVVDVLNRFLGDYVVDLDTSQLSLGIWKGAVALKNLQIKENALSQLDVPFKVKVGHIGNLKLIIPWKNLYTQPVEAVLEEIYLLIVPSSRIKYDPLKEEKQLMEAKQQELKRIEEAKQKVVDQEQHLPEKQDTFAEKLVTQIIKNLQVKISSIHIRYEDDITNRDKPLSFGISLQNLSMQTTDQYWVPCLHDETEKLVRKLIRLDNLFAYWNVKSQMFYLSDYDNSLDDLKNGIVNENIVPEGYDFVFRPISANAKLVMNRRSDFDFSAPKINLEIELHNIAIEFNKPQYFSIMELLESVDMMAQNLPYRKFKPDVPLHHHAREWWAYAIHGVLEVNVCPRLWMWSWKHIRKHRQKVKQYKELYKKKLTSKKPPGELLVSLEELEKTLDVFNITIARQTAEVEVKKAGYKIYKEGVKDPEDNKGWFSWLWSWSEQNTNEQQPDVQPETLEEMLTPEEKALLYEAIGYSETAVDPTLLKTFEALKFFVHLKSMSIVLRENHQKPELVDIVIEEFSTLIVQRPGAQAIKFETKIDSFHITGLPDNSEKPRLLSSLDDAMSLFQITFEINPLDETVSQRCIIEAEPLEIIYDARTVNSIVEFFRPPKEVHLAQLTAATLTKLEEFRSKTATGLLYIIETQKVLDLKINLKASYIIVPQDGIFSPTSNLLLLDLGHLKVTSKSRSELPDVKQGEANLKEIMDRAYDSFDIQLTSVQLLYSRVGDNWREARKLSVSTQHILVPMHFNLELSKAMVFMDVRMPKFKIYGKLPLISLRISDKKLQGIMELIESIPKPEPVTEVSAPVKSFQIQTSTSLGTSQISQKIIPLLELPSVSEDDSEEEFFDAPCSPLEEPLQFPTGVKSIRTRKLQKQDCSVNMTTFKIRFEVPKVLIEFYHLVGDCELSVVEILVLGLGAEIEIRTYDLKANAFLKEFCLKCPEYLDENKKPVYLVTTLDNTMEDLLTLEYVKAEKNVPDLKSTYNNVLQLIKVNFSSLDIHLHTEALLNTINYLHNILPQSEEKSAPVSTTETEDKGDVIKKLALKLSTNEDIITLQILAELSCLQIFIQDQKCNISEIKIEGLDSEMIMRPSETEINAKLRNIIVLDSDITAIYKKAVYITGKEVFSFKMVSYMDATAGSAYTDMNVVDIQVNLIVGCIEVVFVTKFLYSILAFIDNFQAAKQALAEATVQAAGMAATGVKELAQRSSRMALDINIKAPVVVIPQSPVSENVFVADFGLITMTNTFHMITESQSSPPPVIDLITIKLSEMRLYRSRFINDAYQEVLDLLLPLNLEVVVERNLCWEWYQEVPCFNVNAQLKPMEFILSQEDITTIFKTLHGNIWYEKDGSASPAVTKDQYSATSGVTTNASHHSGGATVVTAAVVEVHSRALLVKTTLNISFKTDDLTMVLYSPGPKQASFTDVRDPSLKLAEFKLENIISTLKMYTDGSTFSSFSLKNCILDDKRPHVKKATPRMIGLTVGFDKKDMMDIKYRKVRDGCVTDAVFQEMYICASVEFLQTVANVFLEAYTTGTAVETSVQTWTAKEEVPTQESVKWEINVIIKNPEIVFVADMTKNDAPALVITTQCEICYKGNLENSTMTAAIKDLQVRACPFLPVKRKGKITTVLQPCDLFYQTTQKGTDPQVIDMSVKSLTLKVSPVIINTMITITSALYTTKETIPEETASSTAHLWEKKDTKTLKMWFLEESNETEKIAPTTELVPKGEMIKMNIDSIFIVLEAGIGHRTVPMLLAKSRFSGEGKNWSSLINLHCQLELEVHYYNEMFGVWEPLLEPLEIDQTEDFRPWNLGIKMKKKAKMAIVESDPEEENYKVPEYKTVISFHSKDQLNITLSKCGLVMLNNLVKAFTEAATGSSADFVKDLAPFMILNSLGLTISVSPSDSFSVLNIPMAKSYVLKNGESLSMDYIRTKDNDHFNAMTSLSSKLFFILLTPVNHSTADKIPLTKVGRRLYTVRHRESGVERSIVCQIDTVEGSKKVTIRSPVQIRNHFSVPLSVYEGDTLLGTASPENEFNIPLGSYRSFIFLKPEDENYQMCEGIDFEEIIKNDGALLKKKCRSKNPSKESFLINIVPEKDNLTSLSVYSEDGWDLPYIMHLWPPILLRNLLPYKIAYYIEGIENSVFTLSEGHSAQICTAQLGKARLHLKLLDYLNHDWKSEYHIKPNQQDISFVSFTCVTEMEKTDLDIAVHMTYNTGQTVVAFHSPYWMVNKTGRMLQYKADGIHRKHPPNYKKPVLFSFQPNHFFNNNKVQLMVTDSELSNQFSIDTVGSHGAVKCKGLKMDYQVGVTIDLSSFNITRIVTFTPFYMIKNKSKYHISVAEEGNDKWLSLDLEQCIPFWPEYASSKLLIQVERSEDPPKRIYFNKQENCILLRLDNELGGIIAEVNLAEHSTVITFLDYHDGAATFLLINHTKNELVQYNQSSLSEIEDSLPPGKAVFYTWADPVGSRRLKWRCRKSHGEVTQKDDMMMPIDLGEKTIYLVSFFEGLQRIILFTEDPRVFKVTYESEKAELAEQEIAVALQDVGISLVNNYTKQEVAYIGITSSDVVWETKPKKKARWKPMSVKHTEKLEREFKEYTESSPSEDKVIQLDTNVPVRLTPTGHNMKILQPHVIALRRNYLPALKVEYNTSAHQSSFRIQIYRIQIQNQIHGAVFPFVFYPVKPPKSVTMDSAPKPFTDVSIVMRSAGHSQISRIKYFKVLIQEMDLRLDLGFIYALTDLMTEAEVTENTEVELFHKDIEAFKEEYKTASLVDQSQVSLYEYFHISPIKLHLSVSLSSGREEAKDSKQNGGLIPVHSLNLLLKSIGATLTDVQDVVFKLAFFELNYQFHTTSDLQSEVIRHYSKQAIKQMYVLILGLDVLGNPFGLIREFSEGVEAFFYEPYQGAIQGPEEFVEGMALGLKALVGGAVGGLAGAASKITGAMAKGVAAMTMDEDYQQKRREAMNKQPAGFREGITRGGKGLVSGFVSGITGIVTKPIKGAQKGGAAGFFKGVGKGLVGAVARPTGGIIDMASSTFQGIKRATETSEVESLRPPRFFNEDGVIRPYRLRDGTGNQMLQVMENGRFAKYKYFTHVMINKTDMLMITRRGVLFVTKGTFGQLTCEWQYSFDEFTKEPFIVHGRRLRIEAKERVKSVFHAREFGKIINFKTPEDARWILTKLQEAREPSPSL
UniProt Q9UID3: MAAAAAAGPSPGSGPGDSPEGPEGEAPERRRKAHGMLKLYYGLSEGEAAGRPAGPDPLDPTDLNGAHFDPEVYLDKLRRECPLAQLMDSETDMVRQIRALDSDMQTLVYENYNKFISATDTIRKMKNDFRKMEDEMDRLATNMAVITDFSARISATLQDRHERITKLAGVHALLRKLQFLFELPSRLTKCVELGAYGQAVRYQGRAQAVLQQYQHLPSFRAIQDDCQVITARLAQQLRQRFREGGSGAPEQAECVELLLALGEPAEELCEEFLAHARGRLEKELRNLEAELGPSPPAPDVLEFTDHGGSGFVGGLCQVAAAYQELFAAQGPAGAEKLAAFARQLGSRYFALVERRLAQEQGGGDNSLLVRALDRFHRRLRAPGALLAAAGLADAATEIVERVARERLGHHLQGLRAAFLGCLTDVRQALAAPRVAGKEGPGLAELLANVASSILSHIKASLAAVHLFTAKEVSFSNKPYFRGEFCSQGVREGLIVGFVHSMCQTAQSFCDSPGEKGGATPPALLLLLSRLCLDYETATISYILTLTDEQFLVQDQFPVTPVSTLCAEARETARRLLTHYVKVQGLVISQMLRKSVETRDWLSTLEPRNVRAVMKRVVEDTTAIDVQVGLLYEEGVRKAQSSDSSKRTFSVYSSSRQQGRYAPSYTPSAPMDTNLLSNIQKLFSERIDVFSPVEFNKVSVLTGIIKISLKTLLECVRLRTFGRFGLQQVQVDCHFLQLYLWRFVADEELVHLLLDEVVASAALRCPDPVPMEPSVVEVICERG
UniProt Q6UXN9, whole entry, looked up: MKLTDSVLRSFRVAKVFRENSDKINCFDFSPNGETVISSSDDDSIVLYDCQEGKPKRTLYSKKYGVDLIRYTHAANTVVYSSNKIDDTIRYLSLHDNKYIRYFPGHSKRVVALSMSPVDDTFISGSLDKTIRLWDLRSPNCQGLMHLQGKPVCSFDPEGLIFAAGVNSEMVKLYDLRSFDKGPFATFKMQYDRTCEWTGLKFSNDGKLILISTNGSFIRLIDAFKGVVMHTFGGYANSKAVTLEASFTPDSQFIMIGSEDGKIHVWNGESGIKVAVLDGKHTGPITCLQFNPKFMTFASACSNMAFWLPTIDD
UniProt Q9Y484: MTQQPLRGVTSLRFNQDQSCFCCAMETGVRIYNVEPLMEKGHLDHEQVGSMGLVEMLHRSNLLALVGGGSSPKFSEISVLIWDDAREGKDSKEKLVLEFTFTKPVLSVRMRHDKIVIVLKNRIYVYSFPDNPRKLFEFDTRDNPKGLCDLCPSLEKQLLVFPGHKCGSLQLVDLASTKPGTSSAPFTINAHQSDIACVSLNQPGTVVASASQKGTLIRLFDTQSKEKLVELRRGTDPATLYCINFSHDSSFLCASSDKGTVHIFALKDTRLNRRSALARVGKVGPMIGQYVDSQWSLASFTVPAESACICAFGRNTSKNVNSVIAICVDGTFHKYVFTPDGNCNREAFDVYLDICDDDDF
UniProt Q96FK6: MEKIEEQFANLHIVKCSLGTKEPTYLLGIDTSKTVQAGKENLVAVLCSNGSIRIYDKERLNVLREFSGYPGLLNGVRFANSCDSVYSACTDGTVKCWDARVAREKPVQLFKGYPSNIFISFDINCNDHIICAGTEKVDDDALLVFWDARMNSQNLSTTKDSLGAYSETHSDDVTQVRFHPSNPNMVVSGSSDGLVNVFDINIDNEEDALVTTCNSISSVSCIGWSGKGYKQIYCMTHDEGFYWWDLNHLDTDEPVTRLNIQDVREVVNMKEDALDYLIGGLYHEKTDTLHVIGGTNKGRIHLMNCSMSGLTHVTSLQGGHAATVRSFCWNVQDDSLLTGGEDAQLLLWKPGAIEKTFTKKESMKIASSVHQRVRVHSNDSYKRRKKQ
UniProt Q8NI36: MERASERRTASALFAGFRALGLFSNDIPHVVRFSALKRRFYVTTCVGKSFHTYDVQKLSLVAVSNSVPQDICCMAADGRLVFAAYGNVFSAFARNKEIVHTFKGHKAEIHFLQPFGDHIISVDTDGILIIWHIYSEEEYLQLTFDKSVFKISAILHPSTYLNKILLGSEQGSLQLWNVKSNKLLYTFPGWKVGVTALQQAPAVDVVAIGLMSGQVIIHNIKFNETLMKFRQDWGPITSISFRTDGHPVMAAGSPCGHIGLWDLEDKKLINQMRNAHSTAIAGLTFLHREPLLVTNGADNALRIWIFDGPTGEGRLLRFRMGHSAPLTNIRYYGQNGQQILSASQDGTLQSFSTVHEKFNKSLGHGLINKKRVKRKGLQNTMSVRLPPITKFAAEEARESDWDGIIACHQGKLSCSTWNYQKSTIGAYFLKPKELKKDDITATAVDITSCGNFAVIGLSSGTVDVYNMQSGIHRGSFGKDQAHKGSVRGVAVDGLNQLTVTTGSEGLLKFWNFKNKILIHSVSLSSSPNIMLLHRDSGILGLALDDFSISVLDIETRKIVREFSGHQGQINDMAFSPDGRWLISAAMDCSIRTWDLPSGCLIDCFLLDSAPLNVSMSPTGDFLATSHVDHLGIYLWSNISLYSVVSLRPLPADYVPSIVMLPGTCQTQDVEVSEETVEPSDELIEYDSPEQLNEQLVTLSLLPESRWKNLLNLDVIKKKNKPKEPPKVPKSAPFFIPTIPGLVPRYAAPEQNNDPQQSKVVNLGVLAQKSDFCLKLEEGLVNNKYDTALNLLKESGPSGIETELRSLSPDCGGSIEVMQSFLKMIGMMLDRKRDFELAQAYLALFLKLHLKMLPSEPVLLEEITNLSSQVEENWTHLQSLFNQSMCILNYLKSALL
UniProt P21796, whole entry, looked up: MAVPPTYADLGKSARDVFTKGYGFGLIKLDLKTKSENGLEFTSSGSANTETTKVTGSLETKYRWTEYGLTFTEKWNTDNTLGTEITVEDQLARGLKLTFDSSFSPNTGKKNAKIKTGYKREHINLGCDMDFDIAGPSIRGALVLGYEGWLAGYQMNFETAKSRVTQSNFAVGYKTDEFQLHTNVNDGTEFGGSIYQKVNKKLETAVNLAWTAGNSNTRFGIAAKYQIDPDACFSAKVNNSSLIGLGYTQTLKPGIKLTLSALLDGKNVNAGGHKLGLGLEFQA
UniProt O75554: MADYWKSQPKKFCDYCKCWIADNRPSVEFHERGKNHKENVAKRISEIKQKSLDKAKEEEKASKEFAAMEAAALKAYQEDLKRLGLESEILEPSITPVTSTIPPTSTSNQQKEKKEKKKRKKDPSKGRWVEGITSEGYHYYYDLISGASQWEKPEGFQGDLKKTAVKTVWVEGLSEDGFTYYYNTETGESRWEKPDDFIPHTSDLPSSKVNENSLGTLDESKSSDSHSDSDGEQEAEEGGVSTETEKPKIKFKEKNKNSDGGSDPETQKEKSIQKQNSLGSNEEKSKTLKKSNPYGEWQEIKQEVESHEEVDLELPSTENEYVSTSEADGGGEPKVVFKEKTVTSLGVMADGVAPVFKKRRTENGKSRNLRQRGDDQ

compound: CCCCN(Cc1ccc(C(=O)NO)cc1)C(=O)Nc1ccccc1 [Nexturastat A]; assay: log2 fold change, soluble protein after heating vs DMSO (PISA); higher = thermal stabilisation; K562 cells, 10 uM, 30 min; active = over 0.2 and 3.5 SD of the protein, either way, in both replicates (recomputed)
Outline: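 Values are thermal stability changes relative to control samples and are taken from duplicates. They are stated as log2 fold changes. Before quantification by TMTpro 16plex LC-MS/MS with equalised channel sums, K562 cells at 2×10^6 cells/mL were treated with 10 μM compound for 30 min, heated in aliquots for 3 min across 48°C-58°C, pooled, extracted in PBS with 0.5% NP-40 at 4°C, and centrifuged at 21,000xg for 90 min to give the soluble supernatant.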

Row | Target | log2 fold change
1 | WAPL isoform 3 (UniProt Q7Z5K2) | inactive: -0.134
2 | VGLL4 isoform 4 (UniProt Q14135) | inactive: 0.027
3 | VPS13A (UniProt Q96RL7) | inactive: -0.039
4 | VPS53 isoform 4 (UniProt Q5VIR6) | inactive: 0.022
5 | WDR47 (UniProt O94967) | inactive: -0.048
6 | WIPI2 (UniProt Q9Y4P8) | inactive: -0.112
7 | WDR62 isoform 4 (UniProt O43379) | inactive: 0.029
8 | VPS11 (UniProt Q9H270) | inactive: 0.107
9 | VPS51 (UniProt Q9UID3) | inactive: 0.032
10 | VWA8 (UniProt A3KMH1) | inactive: -0.059
11 | WDR4 (UniProt P57081) | inactive: 0.048
12 | VPS13C (UniProt Q709C8) | inactive: -0.032
13 | WDR82 (UniProt Q6UXN9) | inactive: 0.096
14 | VEZT (UniProt Q9HBM0) | inactive: -0.064
15 | WDR45 (UniProt Q9Y484) | inactive: -0.054
16 | WIPF3 (UniProt A6NGB9) | inactive: -0.082
17 | WDR89 (UniProt Q96FK6) | inactive: -0.031

Row | Target | log2 fold change
18 | WDR34 (UniProt Q96EX3) | inactive: 0.098
19 | VKORC1L1, A0A3B3ISV4 | inactive: -0.075
20 | WIZ (UniProt O95785) | inactive: 0.039
21 | VRK1 (UniProt Q99986) | inactive: -0.085
22 | WRAP73 (UniProt Q9P2S5) | inactive: 0.037
23 | VPS8 (UniProt Q8N3P4) | inactive: 0.032
24 | WDR36 (UniProt Q8NI36) | inactive: 0.182
25 | VPS41 (UniProt P49754) | inactive: 0.108
26 | VWDE (UniProt Q8N2E2) | inactive: 0.044
27 | VDAC1 (UniProt P21796) | inactive: -0.028
28 | VPS25 (UniProt Q9BRG1) | inactive: -0.037
29 | WASHC2C, A0A096LPC5 | inactive: 0
30 | VIM (UniProt P08670) | inactive: 0.178
31 | VPS35 (UniProt Q96QK1) | inactive: -0.107
32 | WDR48 (UniProt Q8TAF3) | inactive: -0.018
33 | WBP4 (UniProt O75554) | inactive: -0.047

Exported tab-delimited: part of the list above
Row	Target	log2 fold change
20	WIZ (UniProt O95785)	inactive: 0.039
32	WDR48 (UniProt Q8TAF3)	inactive: -0.018
